Values from PubChem BioAssay AID743121 (NCATS, 2013).

Purpose: 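Partners whose loss is lethal together with topoisomerase I blockade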 (primary screen)
System: MDA-MB-231 cells, a human breast cancer line
Reagents: single siRNA against human genes, 20 nM siRNA (0.8 pmol per well)
Time to read-out: 120 h (drug added 48 h after transfection, read 72 h later)
Treatment: camptothecin 20 nM (about EC30) for 72 h; vehicle 0.1% DMSO in parallel plates
Measurement: 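CellTiter-Glo ATP signal, scaled to control siRNA as percent viability; sensitisation given as log2 of untreated divided by camptothecin-treated viability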
Direction: log2 vehicle/camptothecin viability: higher = stronger sensitisation to camptothecin
Active means: 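Each gene scored by redundant siRNA activity (RSA) over its individual siRNA ratios; a gene is called active at p < 0.001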
Here is one part, drawn at random, of about 26,000 reagents tested. Of all reagents, 167 (0.63%) got an active call. 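Calls are per gene from RSA p-values that are not deposited; an individual active-marked siRNA can sensitise only weakly.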 The numbers tell different reagents against one gene apart. Further read-outs or replicates are left out here. No sequences are given here.

ABCC9 #1
- log2 vehicle/camptothecin viability: 0.0729
- Call: inactive

ABCC9 #2
- log2 vehicle/camptothecin viability: 0.17
- Call: inactive

ABCC9 #3
- log2 vehicle/camptothecin viability: -0.381
- Call: inactive

ABCC9 #4
- log2 vehicle/camptothecin viability: -0.133
- Call: inactive

AGTR2 #1
- log2 vehicle/camptothecin viability: -0.479
- Call: inactive

AGTR2 #2
- log2 vehicle/camptothecin viability: 0.387
- Call: inactive

AGTR2 #3
- log2 vehicle/camptothecin viability: -0.0442
- Call: inactive

AGTR2 #4
- log2 vehicle/camptothecin viability: -0.585
- Call: inactive

MEP1B #1
- log2 vehicle/camptothecin viability: -0.586
- Call: inactive

MEP1B #2
- log2 vehicle/camptothecin viability: -0.144
- Call: inactive

MEP1B #3
- log2 vehicle/camptothecin viability: -0.244
- Call: inactive

MEP1B #4
- log2 vehicle/camptothecin viability: 0.162
- Call: inactive

HERC3 #1
- log2 vehicle/camptothecin viability: -0.31
- Call: inactive

HERC3 #2
- log2 vehicle/camptothecin viability: -0.562
- Call: inactive

HERC3 #3
- log2 vehicle/camptothecin viability: -0.166
- Call: inactive

HERC3 #4
- log2 vehicle/camptothecin viability: -0.0416
- Call: inactive

KITLG #1
- log2 vehicle/camptothecin viability: -0.0418
- Call: inactive

KITLG #2
- log2 vehicle/camptothecin viability: -0.0134
- Call: inactive

KITLG #3
- log2 vehicle/camptothecin viability: 0.0906
- Call: inactive

KITLG #4
- log2 vehicle/camptothecin viability: -0.54
- Call: inactive

BNIP1 #1
- log2 vehicle/camptothecin viability: 0.135
- Call: inactive

BNIP1 #2
- log2 vehicle/camptothecin viability: 0.228
- Call: inactive

BNIP1 #3
- log2 vehicle/camptothecin viability: -0.318
- Call: inactive

BNIP1 #4
- log2 vehicle/camptothecin viability: -0.279
- Call: inactive

KCNJ4 #1
- log2 vehicle/camptothecin viability: -0.0532
- Call: inactive

KCNJ4 #2
- log2 vehicle/camptothecin viability: -0.261
- Call: inactive

KCNJ4 #3
- log2 vehicle/camptothecin viability: 0.576
- Call: inactive

KCNJ4 #4
- log2 vehicle/camptothecin viability: -0.18
- Call: inactive

KCNG1 #1
- log2 vehicle/camptothecin viability: -0.464
- Call: inactive

KCNG1 #2
- log2 vehicle/camptothecin viability: -0.762
- Call: inactive

KCNG1 #3
- log2 vehicle/camptothecin viability: -0.3
- Call: inactive

KCNG1 #4
- log2 vehicle/camptothecin viability: -0.665
- Call: inactive

CPT1C #1
- log2 vehicle/camptothecin viability: -0.263
- Call: inactive

CPT1C #2
- log2 vehicle/camptothecin viability: -0.449
- Call: inactive

CPT1C #3
- log2 vehicle/camptothecin viability: 0.203
- Call: inactive

CPT1C #4
- log2 vehicle/camptothecin viability: 0.0291
- Call: inactive

No new results follow: 2 of the entries above.
BNIP1 #4
- log2 vehicle/camptothecin viability: -0.279
- Call: inactive

KCNJ4 #1
- log2 vehicle/camptothecin viability: -0.0532
- Call: inactive
